Reference: PubChem BioAssay AID504786 (Drosophila RNAi Screening Center, 2011)

Purpose: 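Fly genes required for HIF-dependent transcription when hypoxia is mimicked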 (primary screen)
Cells: Drosophila S2 cells with a stable HIF luciferase reporter
Reagents: long dsRNA against Drosophila genes, about 0.2 µg dsRNA per well of a 384-well plate
Timing: three days of knock-down, then 20 h of DFO before reading
Conditions: desferrioxamine (DFO) at 100 µM, an iron chelator that mimics hypoxia, for 20 h
Detection: 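HIF reporter luminescence in cells given 100 µM DFO for 20 h, using the mouse ldh-a hypoxia-response element, scored as per-plate z-scores; higher means greater loss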
Reading the numbers: z-score: higher = stronger loss of HIF reporter signal
The deposit covers about 21,000 reagents; this is a random part of those with a known target gene and a result. 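Primary screen; positive scores mean lost reporter signal, so the sign may be inverted from the usual convention.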 No sequences are given here.

no.	gene	DRSC id	z-score, replicate 1	z-score, replicate 2	z-score, replicate 3	z-score, replicate 4
1	CG14958	DRSC08417	0.4	0.7		
2	COX4	DRSC02091	2.4	0.9		
3	Surf6	DRSC15588	-0.2	0.4		
4	CG32023	DRSC08946	-0.2	-0.4		
5	GNBP1	DRSC11169	-0.3	-0.7		
6	klhl10	DRSC05274	0	-0.2		
7	klhl10	DRSC19171	-0.2	0.3		
8	klhl10	DRSC20750	-0.3	-0.3		
9	klhl10	DRSC20925	0.1	0		
10	CG31115	DRSC13692	0	-0.1		
11	CG14606	DRSC12550	-0.2	0.7		
12	Spn55B	DRSC07694	-0.4	-0.4	-0.7	-0.4
13	CG44837	DRSC10133	0.2	-0.2		
14	CG44837	DRSC10558	-0.2	-0.3		
15	CG16727	DRSC15139	-0.7	-0.5		
16	red	DRSC14477	1.3	2		
17	CG9630	DRSC16527	-0.3	0		
18	cutlet	DRSC00284	-0.3	0		
19	CG13786	DRSC02289	-0.3	-0.3		
20	Pis	DRSC20178	-0.3	0.5		
21	Polr2B	DRSC16831	3	3.3		
22	bcn92	DRSC18741	-0.1	-0.1		
23	MED20	DRSC03463	-0.5	-1.2		
24	CG42748	DRSC03712	-0.1	-0.3		
25	CG42748	DRSC03713	-0.2	-0.4		
26	CG42748	DRSC03734	-0.2	-0.2		
27	ArgRS	DRSC20138	0.3	1.3		
28	side-V	DRSC04188	-0.4	-0.3	-0.7	0.1
29	side-V	DRSC04189	-1	-0.3		
30	Naxe	DRSC18251	-0.3	-0.8		
31	CG12506	DRSC00347	-0.3	0.1		
32	CG12773	DRSC18580	-0.1	0		
33	Cog6	DRSC06806	-0.4	-0.2		
34	Incenp	DRSC06116	-0.3	-0.4		
35	Ance-4	DRSC07104	-0.2	-0.7		
36	LManV	DRSC03223	-0.3	0		
37	CG4617	DRSC18377	-0.4	-0.3		
38	betaNACtes2	DRSC19792	-0.2	-1		
39	CG8353	DRSC03084	-0.2	-0.1		
40	Sry-beta	DRSC16868	-0.2	-0.1		
41	Abp1	DRSC09693	0.2	0.2		
42	CG4042	DRSC11751	-0.3	-0.5		
43	prage	DRSC17957	1	-0.4		
44	prage	DRSC17958	1.2	0.2		
45	prage	DRSC18490	0	-0.7		
46	prage	DRSC18497	-0.3	-0.8		
47	bigmax	DRSC15481	-0.3	-0.7		
48	CG14676	DRSC12262	0.1	0.1		
49	CG30010	DRSC05193	-0.3	-0.2		
50	Cht8	DRSC04546	0.1	0		
51	Cpr78Ca	DRSC11651	-0.2	-0.1		
52	janB	DRSC16973	-0.4	-0.2		
53	Ptp52F	DRSC06717	-0.4	0		
54	CG8230	DRSC05931	-0.4	-0.3		
55	CG14645	DRSC12231	-0.3	-0.6		
56	Lmx1a	DRSC09726	-0.1	0		
57	Lmx1a	DRSC10275	0.5	-0.9		
58	CG4480	DRSC02750	-0.2	-0.4		
59	Gr98d	DRSC14571	-0.1	-0.1		
60	cuff	DRSC06315	-0.1	-0.3		
61	lili	DRSC14143	-0.1	-0.2		
62	CG33757	DRSC05159	-0.2	-0.2		
63	5-HT2B	DRSC16360	-0.3	-0.5		
64	5-HT2B	DRSC16362	-0.4	-0.8		
65	Vsx1	DRSC18349	-0.3	-0.7	1.7	1.2
66	Vsx1	DRSC18350	-0.2	1		
67	CG7139	DRSC11611	-0.2	-0.4		
68	CG4546	DRSC15593	0	2.4		
69	Npc1a	DRSC03378	-0.3	-0.3		
70	CG30385	DRSC06031	-0.3	-0.2		
71	140up	DRSC12634	-0.3	-0.6		
72	CG5001	DRSC00673	-0.4	-0.4		
73	nub	DRSC01260	-0.3	-0.4		
74	nub	DRSC02498	-0.2	-0.4		
75	nub	DRSC02499	-0.2	-0.3		
76	nub	DRSC03583	-0.3	-0.9		
77	CG12817	DRSC14555	-0.4	-0.6		
78	nudE	DRSC09000	-0.2	0.5		
79	nudE	DRSC10962	-0.1	0.2		
80	Nadsyn	DRSC20222	-0.2	-0.3		
81	repo	DRSC16369	0.1	-0.6		
82	RhoGAP1A	DRSC20649	-0.4	-0.6		
83	RhoGAP1A	DRSC20651	-0.5	-0.7		

An excerpt of the results above, for reference:
no.	gene	DRSC id	z-score, replicate 1	z-score, replicate 2	z-score, replicate 3	z-score, replicate 4
49	CG30010	DRSC05193	-0.3	-0.2		
50	Cht8	DRSC04546	0.1	0		
51	Cpr78Ca	DRSC11651	-0.2	-0.1		
52	janB	DRSC16973	-0.4	-0.2		
53	Ptp52F	DRSC06717	-0.4	0		
54	CG8230	DRSC05931	-0.4	-0.3		
55	CG14645	DRSC12231	-0.3	-0.6		
56	Lmx1a	DRSC09726	-0.1	0		
57	Lmx1a	DRSC10275	0.5	-0.9		
58	CG4480	DRSC02750	-0.2	-0.4		
59	Gr98d	DRSC14571	-0.1	-0.1		
60	cuff	DRSC06315	-0.1	-0.3		
61	lili	DRSC14143	-0.1	-0.2		
